Results are given in words; binding and its absence hold for the method and conditions named. Some binding calls cover weakened binding; strength is not graded here. For some of these results: Tags and fused reporters may be left off the sequences shown. One block for each binder: values may come before it.
Tests used:
BMP-2 [1] = target: T1, BMP-2 (UniProt P12643); assay: additional binding studies, not described
T1 sequence (looked up): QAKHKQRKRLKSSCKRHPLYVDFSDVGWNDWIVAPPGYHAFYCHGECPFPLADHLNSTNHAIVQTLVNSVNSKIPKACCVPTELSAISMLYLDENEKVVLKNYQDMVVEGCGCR

BMP-2 [2] = target: T1, BMP-2; assay: immunoprecipitation, as summed up in the discussion
BMP-2 [3] = target: T1, BMP-2; assay: reciprocal immunoprecipitation with 9E10 beads; BMP-2 detected by Western blot
BMP-2 [4] = target: T1, BMP-2; assay: COS supernatant with or without 1 ug BMP-2, anti-BMP-2 (h3b2) protein G sepharose beads, Western blot
BMP-2, P12643 [5] = target: T2, BMP-2, P12643; assay: immunoprecipitation, as summed up in the discussion; conditions: remark: other sources report otherwise
T2 chain: T1 sequence (looked up)

BMP-2, P12643 [6] = target: T2, BMP-2, P12643; assay: COS supernatant with or without 1 ug BMP-2, anti-BMP-2 (h3b2) protein G sepharose beads, Western blot; conditions: remark: other sources report otherwise
BMP-2, P12643 [7] = target: T2, BMP-2, P12643; assay: reciprocal immunoprecipitation with anti-hCerberus polyclonal beads; BMP-2 detected by Western blot; conditions: remark: other sources report otherwise
BMP-2 [8] = target: T1, BMP-2; assay: competition in reciprocal immunoprecipitation; 2 or 10 ug human Noggin
BMP-2 [9] = target: T1, BMP-2; assay: competition in immunoprecipitation on anti-BMP-2 beads; 2 or 10 ug Xenopus Noggin

B3: hCerberus-FLAG, O95813 18-267 (protein, human, UniProt O95813 18-267, looked up, not shown: small tags and cut ends)
chain: TRHQDGRQNQSSLSPVLLPRNQRELPTGNHEEAEEKPDLFVAVPHLVATSPAGEGQRQREKMLSRFGRFWKKPEREMHPSRDSDSEPFPPGTQSLIQPIDGMKMEKSPLREEAKKFWHHFMFRKTPASQGVILPIKSHEVHWETCRTVPFSQTITHEGCEKVVVQNNLCFGKCGSVHFPGAAQHSHTSCSHCLPAKFTTMHLPLNCTELSSVIKVVMLVEECQCKVKTEHEDGHILHAGSQDSFIPGVSA
- binding (BMP-2, P12643 [5]): binds
- binding (BMP-2, P12643 [6]): binds

B4: hCerberus, O95813 18-267 (protein, human, UniProt O95813 18-267, looked up)
chain: B3 chain
- binding (BMP-2, P12643 [7]): binds

B5: human Noggin (protein, UniProt Q13253 28-232, looked up)
chain: QHYLHIRPAPSDNLPLVDLIEHPDPIFDPKEKDLNETLLRSLLGGHYDPGFMATSPPEDRPGGGGGAAGGAEDLAELDQLLRQRPSGAMPSEIKGLEFSEGLAQGKKQRLSKKLRRKLQMWLWSQTFCPVLYAWNDLGSRFWPRYVKVGSCFSKRSCSVPEGMVCKPSKSVHLTVLRWRCQRRGGQRCGWIPIQYPIISECKCSC
- binding (BMP-2 [8]): binds

B6: hGremlin-MYC3 (protein, not shown: small tags and cut ends)
chain: KKKGSQGAIPPPDKAQHNDSEQTQSPQQPGSRNRGRGQGRGTAMPGEEVLESSQEALHVTERKYLKRDWCKTQPLKQTIHEEGCNSRTIINRFCYGQCNSFYIPRHIRKEEGSFQSCSFCKPKKFTTMMVTLNCPELQPPTKKKRVTRVKQCRCISIDLD
- binding (BMP-2 [3]): binds

Second part, the binder after the results:

- binding (BMP-2 [1]): binds
- binding (BMP-2 [2]): binds
- binding (BMP-2 [3]): binds
- binding (BMP-2 [4]): binds
B1: mDAN-MYC3 (protein, not shown: small tags and cut ends)
chain: KSAWCEAKNITQIVGHSGCEAKSIQNRACLGQCFSYSVPNTFPQSTESLVHCDSCMPAQSMWEIVTLECPDHEEVPRVDKLVEKIVHCSCQACGKEP

- binding (BMP-2 [1]): binds
- binding (BMP-2 [2]): binds
- binding (BMP-2 [4]): binds
B2: xGremlin-MYC3 (protein, not shown: small tags and cut ends)
chain: KKKVSGSQGAIPPPDKGQPNDSEQGQAQPGDRVRGKGKGQALAAEEVLESSQEALHVTERKYLKRDWCKTQPLKQTIHEDGCNSRTIINRFCYGQCNSFYIPRHIRREEGSFQSCSFCKPKKFTTMVVTLNCPELQPPTKKKRITRVKQCRCISIDLD

- binding (BMP-2 [9]): binds
B7: purified Xenopus Noggin (protein, UniProt P49011 20-222, looked up)
chain: RIDQGGCQHYLHIRPAPSENLPLVDLIEHPDPIYDPKEKDLNETLLRTLMVGHFDPNFMATILPEERLGVEDLGELDLLLRQKPSGAMPAEIKGLEFYEGLQSKKHRLSKKLRRKLQMWLWSQTFCPVLYTWNDLGTRFWPRYVKVGSCYSKRSCSVPEGMVCKAAKSMHLTILRWRCQRRVQQKCAWITIQYPVISECKCSC

Source: patent publication US6432410
